In PubChem BioAssay AID449 (The Scripps Research Institute Molecular Screening Center, 2006):
This is one part of the list. Shown are side measurements of this screen, not its main read-out; they come without a call. Compounds called inactive in the main read-out are mostly missing here.

Sequences of proteins named here, by UniProt entry; tags and fusion partners are left off.
UniProt P21453, whole entry, looked up: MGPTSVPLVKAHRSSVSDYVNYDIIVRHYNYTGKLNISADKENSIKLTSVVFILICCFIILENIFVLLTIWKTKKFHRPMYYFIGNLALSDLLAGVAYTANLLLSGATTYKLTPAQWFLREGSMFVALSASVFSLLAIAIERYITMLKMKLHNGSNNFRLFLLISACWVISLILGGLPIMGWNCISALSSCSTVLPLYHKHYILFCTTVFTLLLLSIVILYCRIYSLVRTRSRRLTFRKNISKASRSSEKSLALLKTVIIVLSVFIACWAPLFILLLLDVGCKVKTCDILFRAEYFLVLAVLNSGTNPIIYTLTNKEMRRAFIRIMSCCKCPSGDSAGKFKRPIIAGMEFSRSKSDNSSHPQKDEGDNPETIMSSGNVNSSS

The molecules below were run against Sphingosine 1-phosphate receptor 1 (Homo sapiens) (UniProt P21453) (assay: activation or potentiation of human S1P1 signaling – cell-based, primary and confirmation screens, CRE-bla reporter, primary screen (AID 449;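 also: forskolin at 4 µM as EC80 and the EC20 agonist is SEW2871; 100% = SEW2871 at its EC100 plus forskolin at EC80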)). Settings: S1P1 CRE-bla cells, forskolin, beta-lactamase FRET, potentiator mode; measured here: confirmation screen, triplicate average; at 9.5 µM; stronger effect = higher value; 100% = saturating reference agonist, 0% = basal; S1P1 agonist co-added at EC20, 2 nM.

Compound	activation [%]
Nc1nonc1C(=O)NCCNCc1cc(Br)ccc1OCc1ccccc1F	110
COc1ccccc1Oc1ccc2c(c1)C(=O)N(c1ccc(O)cc1)C2=O	109
COc1ccc(-c2cn3c(C)c(C(=O)N4CCCc5ccccc54)sc3n2)cc1	61.1
COc1ccccc1-c1cc(C(=O)Nc2ccccc2SC)no1	97.4
O=C(Nc1ccc(-c2noc(CCc3ccccc3)n2)cc1)c1cccnc1	80.9
COc1ccc(-n2c(C)c(C(C)=O)c3cc(O)ccc32)cc1	70.7
CN1CCN(C(=O)CSc2nc(-c3cccs3)cc(-c3cccs3)c2C#N)CC1	82.4
CCc1ccc(-c2nc(-c3ccncc3)no2)cc1	79.5
CCCS(=O)(=O)c1nnnn1-c1cccc(OC)c1	123
c1ccc2c(c1)oc1c(N3CCN(Cc4ccc5c(c4)OCO5)CC3)ncnc12	107
Cc1cc(/C=N/n2cnnc2)c(C)n1-c1ccc(OCc2ccc(F)cc2)cc1	118
Cc1cc(C(=O)CSc2nnc(-c3cccs3)o2)c(C)n1-c1ccccc1	104
COc1ccc(-c2nc(-c3cccc(C)c3)no2)cc1OC	101
Fc1ccc2[nH]c3c(N4CCN(c5ccccc5)CC4)ncnc3c2c1	121
C=CCN1C(=Nc2cccnc2)SCC1(O)c1ccc(C)cc1 (stereo not given)	88.4
COc1ccc(-n2nc3ccc(NS(C)(=O)=O)cc3n2)cc1Cl	103
CCCc1ccc(Oc2cn[nH]c2-c2ccc(O)cc2O)cc1	56.7
CC(C)(C)C1CCC2(CC1)C(C#N)=C(SCC(=O)Nc1ccccc1)NC(=O)C2C#N (stereo not given)	103
CC(C)c1ccc(OCc2nc(-c3ccccn3)no2)c(Br)c1	79.4
Cc1nn(Cc2ccc(Cl)c(Cl)c2)c(C)c1NC(=O)c1cc(-c2ccco2)on1	106
COc1ccc(C(c2c(O)ccc3ccccc23)N2CCOCC2)c(OC)c1 (stereo not given)	111
Cc1cccc(N2CCN(C(=O)CSCc3c(C)noc3C)CC2)c1C	87.2

Compound	activation [%]
COc1cc(CSc2nnnn2-c2ccc(C)cc2)cc(OC)c1OC	107
Oc1c(Cl)cc(Cl)cc1Sc1cc(Cl)cc(Cl)c1O	117
CCN(C1CCCCC1)S(=O)(=O)c1ccc(S(=O)(=O)NCc2ccncc2)cc1	58.5
c1ccc(-c2ccc(-c3nc(-c4cccnc4)no3)cc2)cc1	97.5
CS(=O)(=O)n1nc(OC(=O)c2cccc3ccccc23)cc1N	54.1
Cc1cc(C(=O)COC(=O)c2csc3c2CCCC3)c(C)n1C	72
CCOc1ccc(-c2nc(CSCC(=O)N3CCN(c4cccc(OC)c4)CC3)c(C)o2)cc1	77.3
Cc1cc(C(=O)N2CCN(C(c3ccccc3)c3ccccc3)CC2)no1	85.5
CC(C)c1ccc2oc(-c3ccc(N)cc3)nc2c1	61.6
CCCCOC(=O)c1[nH]c2c(c1C)C(=O)CC(c1cc(OC)c(OC)c(OC)c1)C2 (stereo not given)	65.5
CCc1ccc2oc(-c3cc(N)cc(C)c3O)nc2c1	60.8
Cc1nc2sccn2c1-c1csc(NCc2ccccc2)n1	102
Cc1ccc(-c2csc3ncnc(Sc4nnc(CN5CCCCCC5=O)o4)c23)cc1	100
CC(C)(C)OC(=O)N[C@@H](Cc1ccccc1)c1nnc(S(=O)(=O)Cc2cccc(F)c2)o1	63.6
Clc1ccc(CSc2nnc(-c3ccncc3)o2)cc1	78.1
Cc1cc(C)cc(-c2nc(-c3ccncc3)no2)c1	84.5
CC(C)Cn1c(=O)c(C(=O)Nc2ccccc2S(N)(=O)=O)c(O)c2ccccc21	80.4
c1ccc(C(Cc2nc(-c3cccnc3)no2)c2ccccc2)cc1	93.1
CCOc1ccc(C(=O)Nc2ccc(Cl)cn2)cc1Cl	75.6
N#CCCS(=O)(=O)c1nnnn1-c1ccccc1	91.3
CCOC(=O)/C=C/S(=O)(=O)c1ccc(NC(C)=O)cc1	121
Cc1csc(NC(=O)C(Cc2ccccc2)n2cccc2)n1 (stereo not given)	64.2

A section from further up, for reference:
Compound	activation [%]
CC(C)c1ccc(OCc2nc(-c3ccccn3)no2)c(Br)c1	79.4
Cc1nn(Cc2ccc(Cl)c(Cl)c2)c(C)c1NC(=O)c1cc(-c2ccco2)on1	106
COc1ccc(C(c2c(O)ccc3ccccc23)N2CCOCC2)c(OC)c1 (stereo not given)	111
Cc1cccc(N2CCN(C(=O)CSCc3c(C)noc3C)CC2)c1C	87.2
COc1cc(CSc2nnnn2-c2ccc(C)cc2)cc(OC)c1OC	107
Oc1c(Cl)cc(Cl)cc1Sc1cc(Cl)cc(Cl)c1O	117
CCN(C1CCCCC1)S(=O)(=O)c1ccc(S(=O)(=O)NCc2ccncc2)cc1	58.5
c1ccc(-c2ccc(-c3nc(-c4cccnc4)no3)cc2)cc1	97.5
CS(=O)(=O)n1nc(OC(=O)c2cccc3ccccc23)cc1N	54.1
Cc1cc(C(=O)COC(=O)c2csc3c2CCCC3)c(C)n1C	72
CCOc1ccc(-c2nc(CSCC(=O)N3CCN(c4cccc(OC)c4)CC3)c(C)o2)cc1	77.3
Cc1cc(C(=O)N2CCN(C(c3ccccc3)c3ccccc3)CC2)no1	85.5
CC(C)c1ccc2oc(-c3ccc(N)cc3)nc2c1	61.6
CCCCOC(=O)c1[nH]c2c(c1C)C(=O)CC(c1cc(OC)c(OC)c(OC)c1)C2 (stereo not given)	65.5
CCc1ccc2oc(-c3cc(N)cc(C)c3O)nc2c1	60.8
Cc1nc2sccn2c1-c1csc(NCc2ccccc2)n1	102
Cc1ccc(-c2csc3ncnc(Sc4nnc(CN5CCCCCC5=O)o4)c23)cc1	100
CC(C)(C)OC(=O)N[C@@H](Cc1ccccc1)c1nnc(S(=O)(=O)Cc2cccc(F)c2)o1	63.6
Clc1ccc(CSc2nnc(-c3ccncc3)o2)cc1	78.1
Cc1cc(C)cc(-c2nc(-c3ccncc3)no2)c1	84.5
CC(C)Cn1c(=O)c(C(=O)Nc2ccccc2S(N)(=O)=O)c(O)c2ccccc21	80.4
c1ccc(C(Cc2nc(-c3cccnc3)no2)c2ccccc2)cc1	93.1
CCOc1ccc(C(=O)Nc2ccc(Cl)cn2)cc1Cl	75.6
N#CCCS(=O)(=O)c1nnnn1-c1ccccc1	91.3
CCOC(=O)/C=C/S(=O)(=O)c1ccc(NC(C)=O)cc1	121

Further entries:

Compound	activation [%]
Cc1ccccc1-c1nnc(SCc2ccccc2F)o1	71.5
C=CCn1c(SCC(=O)c2cccs2)nc2sc(CC)cc2c1=O	105
O=S(=O)(NCc1cn2ccsc2n1)c1ccc(Oc2ccccc2)cc1	98.4
Clc1ccc(OCc2nnc(SCc3nc4ccccc4[nH]3)n2Cc2ccco2)cc1	92.5
Cc1sc2ncnc(Sc3nnnn3-c3ccccc3)c2c1C	88.7
CCOc1ccc(-c2nnc(-c3ccco3)o2)cc1OCC	94
COc1cccc(N2CCN(c3ncnc4c3[nH]c3ccc(F)cc34)CC2C)c1 (stereo not given)	123
Cc1nc2sc(-c3ccccc3)cc2c(=O)n1-n1cccc1	66.2
CCc1cc(-c2[nH]ncc2-c2ccc3c(c2)OCO3)c(O)cc1O	74
Cn1c(SCC(=O)Nc2ccc(N3CCOCC3)c(Cl)c2)nnc1-c1ccccc1	82.2
Cc1ccc(-n2c(C)cc(C(=O)COC(=O)c3c(C)noc3C)c2C)cc1	93.8
O=C(CSc1nc2ccccc2o1)Nc1ccc(N2CCOCC2)c(Cl)c1	115
CCOC(=O)Cc1csc(NC(=O)c2ccc(Br)s2)n1	55.4
COc1ccc(CNC(=O)c2cc3c(C)nc4ccccc4c3o2)c(OC)c1	76.8
COc1ccc(-c2nc(-c3ccccc3OC)no2)cc1OC	93.5
COC(=O)c1c(C)n(-c2ccc(OC)cc2)c2ccc(O)cc12	77.2
COc1cccc(-c2nc(-c3ccc(NC(=O)c4cccnc4)cc3)no2)c1	96
O=C(CSc1nnc(-c2c[nH]c3ccccc23)o1)N(Cc1ccccc1)c1ccc(F)cc1	93.5
Cc1nnc(SC(=O)N2c3ccccc3Sc3ccccc32)s1	98.1
Cc1cc(C(=O)CSc2nc3ccccc3c(=O)n2C)c(C)n1Cc1ccc2c(c1)OCO2	115
Cc1cc(C(=O)CSc2nnc(-c3ccccc3)n2-c2ccccc2)c(C)n1-c1ncn[nH]1	65.1
CCCC(=O)Nc1ccc2oc(-c3ccc(OC)c(Br)c3)nc2c1	90.7

Compound	activation [%]
COc1ccc(-c2[nH]ncc2-c2ccc3c(c2)OCCO3)c(O)c1	94.1
CCOc1ccc(-c2nc(-c3ccncc3)no2)cc1OCC	105
Cc1cc(C(=O)CSc2nnc(-c3ccncc3)n2-c2ccccc2)c(C)n1C	93.4
Cc1noc(C)c1S(=O)(=O)N(CC(=O)Nc1ccc2c(c1)OCO2)c1ccc(C(C)C)cc1	79.8
Cc1cc(/C=N/n2cnnc2)c(C)n1-c1ccc(OCc2ccccc2F)cc1	110
CCCc1ccc(Oc2cn[nH]c2-c2ccc(O)c(C)c2O)cc1	75.9
O=C(Nc1nccs1)c1ccc(S(=O)(=O)NCC2CCCCC2)cc1	65.2
CCCC(=O)c1ccc(N2CCN(C(=O)c3ccccc3Br)CC2)c(F)c1	77.7
CC1Cc2cc(-c3csc(NC(=O)Cc4cccs4)n3)ccc2N1S(C)(=O)=O (stereo not given)	85.4
CCOC(=O)c1cccc2c1-c1ccccc1/C2=N/O	72.5
CCN(C(=O)c1ccc(C(C)(C)C)cc1)c1nnc(Cn2nnc3ccccc32)s1	113
O=C(CSC1=NCCS1)Nc1ccnc2ccccc12	113
Cn1nc(CC(=O)Nc2ccc3c(c2)OCCO3)c2ccccc2c1=O	101
Cc1cc(N2CCN(c3nc4ccccc4s3)CC2)n2ncnc2n1	92.3
Cc1cc(/C=c2/sc3nc4ccccc4n3c2=O)c(C)n1-c1ccccn1	103
CC(C)(CC(=O)N1CCN(c2ccc(Cl)cc2)CC1)CC1=NS(=O)(=O)c2ccccc2N1	112
CC(NC(=O)Nc1nnc(C(F)(F)F)s1)(C(F)(F)F)C(F)(F)F	118
Cc1ccc(-n2ncc3c(N4CCCC(C)C4)ncnc32)c(C)c1 (stereo not given)	78.4
CCOC(=O)C1CCN(c2ncnc3c2oc2ccccc23)CC1	69.6
COc1ccc2c(c1)CCc1c(C(=O)Nc3ccc(OC)c(OC)c3)noc1-2	100
Clc1ccc(-n2nnnc2Sc2ncnc3sccc23)cc1	98
CCN(CC)c1ccc2cc(NC(=O)CCC(=O)O)c(=O)oc2c1	61.6

Compound	activation [%]
O=C(c1ccccc1)C(CCC(CN1CCOCC1)C(=O)c1ccccc1)CN1CCOCC1 (stereo not given)	86.8
COc1ccc(NC(=O)c2cc(-c3cccs3)on2)cc1OC	66
CCCn1c(CN2CCN(c3cccc(Cl)c3)CC2)nc2c1c(=O)n(C)c(=O)n2C	108
CC1(C)CC(=O)C(C=Nc2ccc3[nH]ncc3c2)=C(O)C1	75.3
Cc1ccc2[nH]c3c(N4CCCCCC4)ncnc3c2c1	114
CCc1c(C)nc2ncnn2c1NCCc1ccc(OC)cc1	62.7
COc1ccc(-c2nc(-c3ccncc3)no2)cc1OC	97
c1ccc(N2CCN(c3ncnc4c3oc3ccccc34)CC2)cc1	76.7
O=S1(=O)C=C(Sc2nc3ccccc3s2)c2ccccc21	118
CC(C)(C)OC(=O)N[C@@H](Cc1ccccc1)c1nnc(S(=O)(=O)Cc2ccccc2)o1	98.8
Cc1cc(C(=O)Nc2sc(C)c(-c3ccc(F)cc3)c2C(N)=O)no1	86.9
CCc1oc2ccccc2c1C(=O)c1cc(Br)c(O)c(Br)c1	91.5
O=C(Nc1nc(-c2ccc(Cl)s2)cs1)c1ccncc1	89.8
CCCc1ccc(OCc2nc(-c3ccc(NC(=O)c4ccco4)cc3)no2)cc1	71.3
CC(C)c1ccc2oc(-c3cc(N)ccc3O)nc2c1	66.5
CC1=C(C(=O)OCc2ccc3c(c2)OCO3)C(c2ccc(F)cc2)NC(=O)N1 (stereo not given)	83
Cc1nn(-c2nc3ccccc3s2)c(N)c1-c1ccccc1	95.2
O=S1(=O)Nc2c(ccc3cccnc23)-c2ccccc21	62.7
O=S(=O)(CCSc1ccccn1)c1nc2ccccc2s1	73.7
Cc1csc(SCC(=O)c2cc(C)n(Cc3cccs3)c2C)n1	79
c1ccc(CNc2ncnc3ccccc23)cc1	98.3
COc1ccc(-c2noc(-c3cc(C)cc(C)c3)n2)cc1OC	93.4
